According to the supplement of paper PMC7666118:
This is one part of the list.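 How the source made its calls: active = dose-dependent thermal stabilisation significant by F-test of dose-response against flat model at 10% FDR; inactive = not significant.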

Amino acid sequences for entries named in this document (tags omitted). A change or cut given only in a name is not applied to a line headed by its entry.
UniProt P78371: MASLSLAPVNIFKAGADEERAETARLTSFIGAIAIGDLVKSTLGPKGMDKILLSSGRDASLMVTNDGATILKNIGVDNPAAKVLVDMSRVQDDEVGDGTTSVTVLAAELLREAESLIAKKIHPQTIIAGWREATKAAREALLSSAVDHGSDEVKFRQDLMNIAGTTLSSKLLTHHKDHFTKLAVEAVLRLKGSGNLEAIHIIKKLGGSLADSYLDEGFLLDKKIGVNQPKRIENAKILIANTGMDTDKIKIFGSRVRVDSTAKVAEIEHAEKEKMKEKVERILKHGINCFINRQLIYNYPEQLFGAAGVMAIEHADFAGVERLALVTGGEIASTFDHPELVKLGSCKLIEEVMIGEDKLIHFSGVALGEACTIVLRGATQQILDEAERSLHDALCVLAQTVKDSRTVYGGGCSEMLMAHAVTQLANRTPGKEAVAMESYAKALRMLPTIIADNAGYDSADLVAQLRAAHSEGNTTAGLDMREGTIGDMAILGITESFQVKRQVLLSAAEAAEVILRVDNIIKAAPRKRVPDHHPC
UniProt Q8WUX2: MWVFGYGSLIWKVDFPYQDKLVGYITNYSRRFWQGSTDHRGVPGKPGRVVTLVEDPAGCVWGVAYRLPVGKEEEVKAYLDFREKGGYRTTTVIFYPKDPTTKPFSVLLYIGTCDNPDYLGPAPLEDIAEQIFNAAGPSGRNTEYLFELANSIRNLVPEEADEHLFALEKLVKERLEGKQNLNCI
UniProt O75828: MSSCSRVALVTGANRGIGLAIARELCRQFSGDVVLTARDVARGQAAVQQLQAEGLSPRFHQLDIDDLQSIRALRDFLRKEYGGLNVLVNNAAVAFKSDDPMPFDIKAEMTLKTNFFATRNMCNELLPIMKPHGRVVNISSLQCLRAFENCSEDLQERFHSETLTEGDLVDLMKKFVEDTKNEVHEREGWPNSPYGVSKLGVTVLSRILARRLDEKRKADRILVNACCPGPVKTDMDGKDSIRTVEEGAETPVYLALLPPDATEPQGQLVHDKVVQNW
UniProt P48643, whole entry: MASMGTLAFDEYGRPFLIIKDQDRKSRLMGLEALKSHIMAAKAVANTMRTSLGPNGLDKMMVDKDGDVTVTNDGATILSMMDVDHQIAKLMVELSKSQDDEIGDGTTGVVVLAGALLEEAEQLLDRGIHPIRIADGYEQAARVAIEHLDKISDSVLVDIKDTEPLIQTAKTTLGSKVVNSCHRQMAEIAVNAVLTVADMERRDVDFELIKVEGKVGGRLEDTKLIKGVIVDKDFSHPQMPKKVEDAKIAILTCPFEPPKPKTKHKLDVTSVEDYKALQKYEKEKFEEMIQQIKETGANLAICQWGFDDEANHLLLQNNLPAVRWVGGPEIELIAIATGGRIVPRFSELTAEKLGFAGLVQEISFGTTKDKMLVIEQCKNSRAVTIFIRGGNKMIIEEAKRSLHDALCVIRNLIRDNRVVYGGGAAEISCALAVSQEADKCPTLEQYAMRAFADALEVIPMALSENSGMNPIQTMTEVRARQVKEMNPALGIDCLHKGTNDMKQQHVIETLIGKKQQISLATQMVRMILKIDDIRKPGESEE
UniProt P33552, whole entry: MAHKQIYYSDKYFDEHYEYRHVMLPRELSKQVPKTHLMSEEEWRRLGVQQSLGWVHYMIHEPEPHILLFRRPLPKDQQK
UniProt Q14061: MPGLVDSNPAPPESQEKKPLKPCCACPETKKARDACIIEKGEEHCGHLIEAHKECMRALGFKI
UniProt P55273: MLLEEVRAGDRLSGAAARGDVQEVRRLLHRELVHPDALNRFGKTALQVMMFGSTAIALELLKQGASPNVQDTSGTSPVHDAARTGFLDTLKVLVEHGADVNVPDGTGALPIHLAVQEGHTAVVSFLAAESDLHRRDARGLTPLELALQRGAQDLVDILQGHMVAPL
UniProt P41208: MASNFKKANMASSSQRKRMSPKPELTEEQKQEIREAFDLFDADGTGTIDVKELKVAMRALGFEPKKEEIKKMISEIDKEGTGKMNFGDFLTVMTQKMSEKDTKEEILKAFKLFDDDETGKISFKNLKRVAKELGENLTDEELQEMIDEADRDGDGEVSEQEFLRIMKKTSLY
UniProt O75081: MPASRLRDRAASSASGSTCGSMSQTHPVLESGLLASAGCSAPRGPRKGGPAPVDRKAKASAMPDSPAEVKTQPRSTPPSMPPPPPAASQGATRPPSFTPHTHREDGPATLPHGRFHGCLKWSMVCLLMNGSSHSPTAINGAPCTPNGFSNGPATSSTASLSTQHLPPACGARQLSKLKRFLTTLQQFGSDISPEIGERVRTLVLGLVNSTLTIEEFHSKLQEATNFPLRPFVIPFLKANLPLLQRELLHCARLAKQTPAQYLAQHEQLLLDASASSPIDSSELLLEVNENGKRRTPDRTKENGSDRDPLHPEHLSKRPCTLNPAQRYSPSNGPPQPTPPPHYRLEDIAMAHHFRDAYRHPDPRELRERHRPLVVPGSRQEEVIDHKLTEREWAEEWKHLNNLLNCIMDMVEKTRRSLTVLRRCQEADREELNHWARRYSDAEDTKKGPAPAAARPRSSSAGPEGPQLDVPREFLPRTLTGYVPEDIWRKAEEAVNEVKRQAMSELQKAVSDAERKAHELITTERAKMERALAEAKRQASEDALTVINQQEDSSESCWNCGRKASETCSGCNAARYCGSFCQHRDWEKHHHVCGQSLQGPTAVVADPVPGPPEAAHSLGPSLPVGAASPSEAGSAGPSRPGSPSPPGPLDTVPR
UniProt Q99439: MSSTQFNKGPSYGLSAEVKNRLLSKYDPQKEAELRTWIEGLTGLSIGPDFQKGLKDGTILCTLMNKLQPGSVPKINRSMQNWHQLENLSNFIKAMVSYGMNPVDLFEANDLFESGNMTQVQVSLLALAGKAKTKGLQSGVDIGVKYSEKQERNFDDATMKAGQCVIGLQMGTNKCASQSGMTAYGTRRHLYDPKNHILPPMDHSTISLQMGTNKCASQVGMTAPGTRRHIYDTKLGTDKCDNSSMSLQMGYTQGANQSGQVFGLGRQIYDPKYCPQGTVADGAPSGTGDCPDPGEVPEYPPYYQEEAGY
UniProt O14618: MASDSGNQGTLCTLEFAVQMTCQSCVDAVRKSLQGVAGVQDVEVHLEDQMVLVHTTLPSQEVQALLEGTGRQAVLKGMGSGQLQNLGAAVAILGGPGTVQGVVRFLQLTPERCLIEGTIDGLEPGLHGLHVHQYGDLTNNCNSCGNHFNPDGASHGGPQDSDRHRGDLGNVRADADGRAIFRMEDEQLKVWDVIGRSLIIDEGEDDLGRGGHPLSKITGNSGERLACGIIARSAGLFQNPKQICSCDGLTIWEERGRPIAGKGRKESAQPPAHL
UniProt Q7Z3E2: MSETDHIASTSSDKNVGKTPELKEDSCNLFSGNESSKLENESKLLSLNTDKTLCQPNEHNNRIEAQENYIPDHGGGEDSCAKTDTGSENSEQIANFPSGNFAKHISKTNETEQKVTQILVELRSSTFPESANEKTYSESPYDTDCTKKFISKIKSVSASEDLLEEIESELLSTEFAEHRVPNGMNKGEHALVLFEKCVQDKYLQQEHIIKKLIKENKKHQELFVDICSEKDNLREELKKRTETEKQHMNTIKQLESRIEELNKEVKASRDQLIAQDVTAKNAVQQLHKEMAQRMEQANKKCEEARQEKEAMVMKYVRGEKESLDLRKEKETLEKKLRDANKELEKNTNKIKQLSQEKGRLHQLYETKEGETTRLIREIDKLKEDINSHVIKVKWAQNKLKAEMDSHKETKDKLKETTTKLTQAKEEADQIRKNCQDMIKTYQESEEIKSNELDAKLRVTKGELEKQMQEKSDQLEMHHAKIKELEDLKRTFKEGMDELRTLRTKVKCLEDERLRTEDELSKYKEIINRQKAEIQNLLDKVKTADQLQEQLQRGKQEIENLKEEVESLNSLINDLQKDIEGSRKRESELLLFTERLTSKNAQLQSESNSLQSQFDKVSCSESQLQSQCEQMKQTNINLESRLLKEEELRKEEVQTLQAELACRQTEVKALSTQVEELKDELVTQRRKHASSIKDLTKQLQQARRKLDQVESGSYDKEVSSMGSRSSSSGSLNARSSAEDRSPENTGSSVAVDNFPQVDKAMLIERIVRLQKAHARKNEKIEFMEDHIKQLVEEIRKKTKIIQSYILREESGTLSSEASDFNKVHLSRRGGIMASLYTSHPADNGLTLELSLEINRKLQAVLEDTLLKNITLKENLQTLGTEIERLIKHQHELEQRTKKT
UniProt Q9BSQ5: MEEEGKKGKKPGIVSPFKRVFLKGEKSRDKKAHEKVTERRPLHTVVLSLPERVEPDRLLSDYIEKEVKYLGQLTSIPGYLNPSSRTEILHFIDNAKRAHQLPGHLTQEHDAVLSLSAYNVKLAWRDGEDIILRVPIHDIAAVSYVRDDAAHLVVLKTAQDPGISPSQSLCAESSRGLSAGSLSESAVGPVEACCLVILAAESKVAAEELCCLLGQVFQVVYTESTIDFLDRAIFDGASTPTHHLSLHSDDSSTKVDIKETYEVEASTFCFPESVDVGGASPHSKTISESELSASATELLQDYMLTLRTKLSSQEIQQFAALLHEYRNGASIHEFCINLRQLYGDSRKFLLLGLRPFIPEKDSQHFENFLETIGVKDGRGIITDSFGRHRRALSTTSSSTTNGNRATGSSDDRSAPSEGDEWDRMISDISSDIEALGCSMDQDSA
UniProt P50750, whole entry: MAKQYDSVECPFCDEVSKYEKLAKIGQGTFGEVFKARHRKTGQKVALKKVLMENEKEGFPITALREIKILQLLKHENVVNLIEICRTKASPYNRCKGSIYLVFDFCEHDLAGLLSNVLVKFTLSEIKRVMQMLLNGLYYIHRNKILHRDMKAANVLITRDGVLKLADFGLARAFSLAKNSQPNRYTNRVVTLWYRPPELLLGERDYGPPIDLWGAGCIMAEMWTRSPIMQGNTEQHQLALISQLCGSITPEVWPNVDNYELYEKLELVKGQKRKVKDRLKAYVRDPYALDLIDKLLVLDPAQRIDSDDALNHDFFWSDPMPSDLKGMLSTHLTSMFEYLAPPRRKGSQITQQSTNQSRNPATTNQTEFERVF
UniProt O60508: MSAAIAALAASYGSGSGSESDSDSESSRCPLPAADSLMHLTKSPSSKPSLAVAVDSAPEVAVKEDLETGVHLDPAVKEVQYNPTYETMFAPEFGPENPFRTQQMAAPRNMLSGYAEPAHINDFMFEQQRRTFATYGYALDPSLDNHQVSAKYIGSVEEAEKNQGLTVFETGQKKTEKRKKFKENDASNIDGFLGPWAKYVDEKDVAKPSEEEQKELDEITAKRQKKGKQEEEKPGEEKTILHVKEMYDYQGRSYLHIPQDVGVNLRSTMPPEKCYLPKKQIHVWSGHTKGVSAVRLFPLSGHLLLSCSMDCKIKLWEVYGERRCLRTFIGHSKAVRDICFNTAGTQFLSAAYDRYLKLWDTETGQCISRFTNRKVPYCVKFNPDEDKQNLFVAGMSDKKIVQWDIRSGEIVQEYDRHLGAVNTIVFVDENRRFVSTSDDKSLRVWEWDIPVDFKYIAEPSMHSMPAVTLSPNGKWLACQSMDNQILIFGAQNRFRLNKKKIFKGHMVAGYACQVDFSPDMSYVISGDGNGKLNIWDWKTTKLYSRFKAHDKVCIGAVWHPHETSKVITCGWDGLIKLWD
UniProt Q8WUD4: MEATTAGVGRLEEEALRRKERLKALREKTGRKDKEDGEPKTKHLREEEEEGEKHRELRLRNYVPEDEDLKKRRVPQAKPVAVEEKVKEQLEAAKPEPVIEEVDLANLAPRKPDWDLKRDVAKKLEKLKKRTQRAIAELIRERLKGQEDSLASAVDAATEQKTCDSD
UniProt Q8N668, whole entry: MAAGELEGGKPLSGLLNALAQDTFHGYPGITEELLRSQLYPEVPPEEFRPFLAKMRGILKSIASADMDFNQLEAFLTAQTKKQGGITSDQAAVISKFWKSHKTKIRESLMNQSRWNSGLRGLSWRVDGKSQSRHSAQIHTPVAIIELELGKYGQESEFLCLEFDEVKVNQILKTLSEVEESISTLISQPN
UniProt O14757: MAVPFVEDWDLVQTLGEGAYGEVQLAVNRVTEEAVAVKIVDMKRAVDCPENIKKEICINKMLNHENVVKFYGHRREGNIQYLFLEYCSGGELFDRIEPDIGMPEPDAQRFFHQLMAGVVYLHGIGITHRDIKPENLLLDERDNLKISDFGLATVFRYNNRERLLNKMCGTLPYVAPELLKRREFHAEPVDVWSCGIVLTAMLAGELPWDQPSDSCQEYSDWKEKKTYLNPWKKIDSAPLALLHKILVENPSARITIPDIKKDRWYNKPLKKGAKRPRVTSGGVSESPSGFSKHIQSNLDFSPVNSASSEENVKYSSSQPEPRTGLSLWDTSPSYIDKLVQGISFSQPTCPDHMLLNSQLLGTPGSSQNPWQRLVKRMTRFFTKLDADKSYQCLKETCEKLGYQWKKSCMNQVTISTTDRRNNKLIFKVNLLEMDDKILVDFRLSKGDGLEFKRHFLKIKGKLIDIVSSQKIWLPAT

Compound: Nc1nc2c(ncn2[C@@H]2O[C@H](COP(=O)(O)OP(=O)(O)OP(=O)(O)O)[C@@H](O)[C@H]2O)c(=O)[nH]1
Experiment: dose-dependent thermal stabilisation call (2D-TPP, DLPTP, 10% FDR) (binary (1 = stabilised)); higher = stabilised by the compound
Details: system: Jurkat gel-filtered lysate; concentration range 1-500 µM

Target | dose-dependent thermal stabilisation call
CCT2 (UniProt P78371) | inactive: 0
CHAC2 (UniProt Q8WUX2) | inactive: 0
CBR3 (UniProt O75828) | inactive: 0
CCT5 (UniProt P48643) | inactive: 0
CKS2 (UniProt P33552) | inactive: 0
CEP85 (UniProt Q6P2H3) | inactive: 0
COG3 (UniProt Q96JB2) | active: 1
CLN5 (UniProt O75503) | inactive: 0
COX17 (UniProt Q14061) | inactive: 0
CDKN2D (UniProt P55273) | inactive: 0
CHD1L (UniProt Q86WJ1) | active: 1
CETN2 (UniProt P41208) | inactive: 0
CBFA2T3 (UniProt O75081) | inactive: 0
COG2 (UniProt Q14746) | active: 1
CNN2 (UniProt Q99439) | inactive: 0
CCS (UniProt O14618) | active: 1
CCDC186 (UniProt Q7Z3E2) | inactive: 0
CLTC (UniProt Q00610) | inactive: 0
CCM2 (UniProt Q9BSQ5) | inactive: 0
CDK9 (UniProt P50750) | inactive: 0
CDK16 (UniProt Q00536) | inactive: 0
CAT (UniProt P04040) | inactive: 0
CDC40 (UniProt O60508) | inactive: 0
CCDC12 (UniProt Q8WUD4) | inactive: 0
COPA (UniProt P53621) | inactive: 0
COMMD1 (UniProt Q8N668) | inactive: 0
CHEK1 (UniProt O14757) | inactive: 0

Two entries drawn at random from the list so far, as already listed:
Target | dose-dependent thermal stabilisation call
CLTC (UniProt Q00610) | inactive: 0
CCT5 (UniProt P48643) | inactive: 0
